Data taken from paper PMC11758633.
Results are given in words; binding and its absence hold for the method and conditions named. In cells and extracts the contact can be indirect. Some entries that bind do so weakly or less than the wild type.

Molecular target: T1, Mlx (human (endogenous in RPE-1)) (UniProt Q9UH92)
T1 sequence: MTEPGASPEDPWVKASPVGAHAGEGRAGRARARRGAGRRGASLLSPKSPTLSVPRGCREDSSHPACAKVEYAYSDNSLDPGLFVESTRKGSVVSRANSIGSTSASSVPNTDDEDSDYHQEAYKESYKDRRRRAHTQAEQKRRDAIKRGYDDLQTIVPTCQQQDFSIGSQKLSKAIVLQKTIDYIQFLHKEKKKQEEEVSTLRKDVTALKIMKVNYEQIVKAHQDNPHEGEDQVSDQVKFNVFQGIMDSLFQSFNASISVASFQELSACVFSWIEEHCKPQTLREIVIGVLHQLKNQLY
Test: co-IP; endogenous proteins; RPE-1 cells treated with vehicle or 25 uM SFN (4 h in the methods; 0, 4 or 8 h in the legend), lysed in TPER with protease inhibitors; capture overnight at 4 °C with an anti-MLX antibody; MondoA detected by Western blot

- binding: binds
B1: MondoA (protein, UniProt Q9HAP2 1-919)
chain: MAADVFMCSPRRPRSRGRQVLLKPQVSEDDDDSDTDEPSPPPASGAATPARAHASAAPPPPRAGPGREEPPRRQQIIHSGHFMVSSPHREHPPKKGYDFDTVNKQTCQTYSFGKTSSCHLSIDASLTKLFECMTLAYSGKLVSPKWKNFKGLKLQWRDKIRLNNAIWRAWYMQYLEKRKNPVCHFVTPLDGSVDVDEHRRPEAITTEGKYWKSRIEIVIREYHKWRTYFKKRLQQHKDEDLSSLVQDDDMLYWHKHGDGWKTPVPMEEDPLLDTDMLMSEFSDTLFSTLSSHQPVAWPNPREIAHLGNADMIQPGLIPLQPNLDFMDTFEPFQDLFSSSRSIFGSMLPASASAPVPDPNNPPAQESILPTTALPTVSLPDSLIAPPTAPSLAHMDEQGCEHTSRTEDPFIQPTDFGPSEPPLSVPQPFLPVFTMPLLSPSPAPPPISPVLPLVPPPATALNPPAPPTFHQPQKFAGVNKAPSVITHTASATLTHDAPATTFSQSQGLVITTHHPAPSAAPCGLALSPVTRPPQPRLTFVHPKPVSLTGGRPKQPHKIVPAPKPEPVSLVLKNARIAPAAFSGQPQAVIMTSGPLKREGMLASTVSQSNVVIAPAAIARAPGVPEFHSSILVTDLGHGTSSPPAPVSRLFPSTAQDPLGKGEQVPLHGGSPQVTVTGPSRDCPNSGQASPCASEQSPSPQSPQNNCSGKSDPKNVAALKNRQMKHISAEQKRRFNIKMCFDMLNSLISNNSKLTSHAITLQKTVEYITKLQQERGQMQEEARRLREEIEELNATIISCQQLLPATGVPVTRRQFDHMKDMFDEYVKTRTLQNWKFWIFSIIIKPLFESFKGMVSTSSLEELHRTALSWLDQHCSLPILRPMVLSTLRQLSTSTSILTDPAQLPEQASKAVTRIGKRLGES
